This note sets out measurements from patent US20250137008A1 (UNIVERSITY OF GLASGOW, published 2025).

Results are given in words; binding and its absence hold for the method and conditions named. Some entries that bind do so weakly or less than the wild type.

In this experiment the target is gVSD^PNNP N-terminus (soluble) (Arabidopsis thaliana). The experiment in a line: gel filtration of soluble N-termini (self-association).

B1: gVSD^PNNP N-terminus (soluble) (protein)
chain: MGRLRRRQEIIDHEEEESNDDVSSDDGDLSLAKTFDWLKSSKDDDIKTKGDNKYDYIIDPKNRWYKAWE
With B1, the binding result is on record as “binds”.
